Structures are written as SMILES. The list shows only some results of the screen, not a fair sample: it is rich in T/C values a quarter to a half above the control, in often repeated tests (any T/C) and in doses without a T/C. Other doses and runs of a compound stand elsewhere. T/C gives the treated animals as a percentage of the vehicle group. Some doses have a count of surviving animals in place of a T/C: the source holds a T/C of zero for them, seemingly a mark for toxic or unscored doses. Some survivor counts are full or nearly so, which does not show that the dose was tolerated: survival well below the control is almost never listed, so the zero probably covers shortened survival too. Survivors were counted at the toxicity check, usually on the fifth day, unless a day is given; later deaths do not show. Schedule codes are those of the source, taken here to give the interval after Q, in days (D) or hours (H), and the number of doses after X. Some entries were tested several times; the results are listed from low to high. Where survival is the endpoint, the PubChem record calls one and a half times the control and up active, and a quarter to a half above the control has no call in these data; cut-offs in other NCI protocols can differ. Some T/C values carry the count of animals alive at the toxicity check (mostly the fifth day); where none is given, no animal had died by that day.

For the assay, the system named is B6C3F1 mice, B16 melanoma ip, median survival T/C. The assay can be described thus: NCI In Vivo Anticancer Drug Screen. Data for tumor model B16 Melanoma (intraperitoneal) in B6C3F1 mice. As to conditions: T/C endpoint: median survival time, schedule: Q01DX009 (ip), higher T/C = longer survival. The gist of the method:
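Mice bearing transplanted tumor were dosed with compound or vehicle, and survival was recorded. Activity is expressed as the treated-group measurement (T) divided by the vehicle control measurement (C).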

Setting [1] is: dose: 400.0 mg/kg/injection, vehicle: Klucel (hydroxypropylcellulose) (HPC).
Setting [2] is: dose: 100.0 mg/kg/injection, vehicle: saline with Tween-80.
Setting [3] is: dose: 3.0 mg/kg/injection, vehicle: Klucel (hydroxypropylcellulose) (HPC).
Setting [4] is: dose: 400.0 mg/kg/injection, vehicle: saline with Tween-80.

Take `Oc1c(Cl)cc(Cl)cc1C=NCCSc1ccc(Cl)cc1`: under setting [1], the survivor count was 0 of 10 and 5 of 10.

Consider `Nc1nc(/C=C(/O)c2ccccc2)c2ncn(C3OC(CO)C(O)C3O)c2n1` (centres undefined), for which the survivor count by setting is: (dose: 200.0 mg/kg/injection, vehicle: distilled water + Tween-80) 5 of 10; (dose: 400.0 mg/kg/injection, vehicle: distilled water + Tween-80) 0 of 10; (dose: 400.0 mg/kg/injection, vehicle: saline) 4 of 10.

With `O=c1nc(Oc2ccccc2)nc2ncccn12`, the T/C is 109 % of control (dose: 6.25 mg/kg/injection, vehicle: saline with Tween-80, evaluated on day 45); 90, 101, 108 % of control (dose: 6.25 mg/kg/injection, vehicle: saline with Tween-80, evaluated on day 60); 116 % of control (dose: 12.5 mg/kg/injection, vehicle: saline with Tween-80, evaluated on day 45); 101, 106, 113 % of control (dose: 12.5 mg/kg/injection, vehicle: saline with Tween-80, evaluated on day 60); 114 % of control [9 of 10 alive] (dose: 25.0 mg/kg/injection, vehicle: saline with Tween-80, evaluated on day 45); 106 [9 of 10 alive], 112 [8 of 10 alive], 124 % of control (dose: 25.0 mg/kg/injection, vehicle: saline with Tween-80, evaluated on day 60). The T/C is 146 % of control [8 of 10 alive] (dose: 50.0 mg/kg/injection, vehicle: saline with Tween-80, evaluated on day 45); 125 and 140 % of control (dose: 50.0 mg/kg/injection, vehicle: saline with Tween-80, evaluated on day 60). For the same compound, the survivor count by setting is: (dose: 50.0 mg/kg/injection, vehicle: saline with Tween-80) 0 of 10; under setting [2], 0 of 10, 1 of 10, 3 of 10, 4 of 10.

Regarding `Nc1ncnc2c1ncn2C1OC(COP(=O)(O)O)C(O)C1O` (centres undefined), where the note is “dose: 800.0 mg/kg/injection, vehicle: saline”, the T/C was 129 % of control. For the same compound, under “dose: 1600.0 mg/kg/injection, vehicle: saline”, the survivor count is on record as 10 of 10.

Take `CCC(C)Nc1ccc(N)cc1` (centres undefined): the survivor count (dose: 24.0 mg/kg/injection, vehicle: Klucel (hydroxypropylcellulose) (HPC)) was 5 of 10.

For the compound `COc1cc([C@@H]2c3cc4c(cc3[C@H](O)[C@H]3COC(=O)[C@H]23)OCO4)cc(OC)c1OC`, where the note is “dose: 1.0 mg/kg/injection, vehicle: Klucel (hydroxypropylcellulose) (HPC)”, the T/C was 128 % of control. Moreover, the survivor count runs as follows: (dose: 8.0 mg/kg/injection, vehicle: Klucel (hydroxypropylcellulose) (HPC)) 6 of 10; (dose: 16.0 mg/kg/injection, vehicle: Klucel (hydroxypropylcellulose) (HPC)) 4 of 10; (dose: 32.0 mg/kg/injection, vehicle: Klucel (hydroxypropylcellulose) (HPC)) 0 of 10.

As to `COc1cc2cc(c1Cl)N(C)C(=O)CC(OC(=O)CC(C)C)C1(C)OC1C(C)C1CC(O)(NC(=O)O1)C(OC)/C=C/C=C(C)C2` (centres undefined), the T/C reads like this: (dose: 6.2 micrograms/kg/injection, vehicle: saline + alcohol) 131 % of control; (dose: 12.5 micrograms/kg/injection, vehicle: saline + alcohol) 132 % of control; (dose: 25.0 micrograms/kg/injection, vehicle: saline + alcohol) 138 % of control. The survivor count is, setting by setting: (dose: 50.0 micrograms/kg/injection, vehicle: saline + alcohol) 10 of 10; (dose: 100.0 micrograms/kg/injection, vehicle: saline + alcohol) 8 of 10; (dose: 200.0 micrograms/kg/injection, vehicle: saline + alcohol) 1 of 10.

For the compound `Cc1cc(C)c(-c2cc(O)c(C)cc2O)c(C)c1`, the survivor count under setting [1] was 8 of 10.

As for `C=C(C)[C@@H]1CCc2c(O)c(O)c(=O)cc(C)c2C1`, the T/C (dose: 50.0 mg/kg/injection, vehicle: saline) is 131 % of control [8 of 9 alive]; the T/C under setting [2] is 126 % of control; the T/C (dose: 100.0 mg/kg/injection, vehicle: saline) was 134 % of control. Further, the survivor count (dose: 200.0 mg/kg/injection, vehicle: saline) is listed as 10 of 10.

With `C[C@H](N)C(=O)N[C@@H]1[C@H]2C(=C(O)C[C@@H](O)[C@@H]2O)C(=O)O[C@]1(C)C(Cl)Cl`, the T/C under setting [3] is 124 % of control. The survivor count under setting [3] is listed as 7 of 10, 10 of 10, 9 of 9; the survivor count (dose: 6.0 mg/kg/injection, vehicle: Klucel (hydroxypropylcellulose) (HPC)) is 4 of 10 and 8 of 10; the survivor count (dose: 6.25 mg/kg/injection, vehicle: Klucel (hydroxypropylcellulose) (HPC)) is 0 of 10; the survivor count (dose: 12.5 mg/kg/injection, vehicle: Klucel (hydroxypropylcellulose) (HPC)) is on record as 0 of 10; the survivor count (dose: 25.0 mg/kg/injection, vehicle: Klucel (hydroxypropylcellulose) (HPC)) is reported as 0 of 10; the survivor count (dose: 50.0 mg/kg/injection, vehicle: Klucel (hydroxypropylcellulose) (HPC)) is 0 of 10. Where the note is “dose: 100.0 mg/kg/injection, vehicle: Klucel (hydroxypropylcellulose) (HPC)”, the survivor count is reported as 0 of 10.

With `CCC(=O)Sc1ccccc1C(=O)Nc1ccc(Cl)cc1`, the survivor count under setting [4] is 9 of 9.

With `O=C(Oc1ccccc1)c1cc(O)c(O)c(O)c1`, the survivor count under setting [4] is 7 of 10.

Take `Nc1nc(F)nc2c1ncn2C1OC(COP(=O)(O)O)C(O)C1O` (centres undefined): the survivor count by setting is: (dose: 200.0 mg/kg/injection, vehicle: suspension in saline) 9 of 10; (dose: 400.0 mg/kg/injection, vehicle: suspension in saline) 7 of 10.

The record behind these values is PubChem BioAssay AID200 (DTP/NCI, 2004).
